Assay results as given in article doi:10.1101/2021.04.21.440662.
These are yes or no findings as the source states them, for the method shown. Some binding calls cover weakened binding; strength is not graded here. Where a sequence is shown, tags or fusion partners need not be part of it.

Amino acid sequences for entries named in this document (tags omitted). A change or cut given only in a name is not applied to a line headed by its entry.
UniProt P0AEN4, whole entry, looked up, stated change not applied: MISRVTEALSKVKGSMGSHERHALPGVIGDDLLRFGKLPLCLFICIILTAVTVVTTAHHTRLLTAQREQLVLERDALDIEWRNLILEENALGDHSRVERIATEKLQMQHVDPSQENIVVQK

Biological target: T1, His-FtsB (E. coli) (UniProt P0A6S5)
T1 sequence: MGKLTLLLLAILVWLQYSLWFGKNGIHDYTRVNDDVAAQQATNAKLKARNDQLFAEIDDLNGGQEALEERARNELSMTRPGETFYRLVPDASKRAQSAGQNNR
Assay: co-purification

B1: Strep-FtsL_(35-121)-C41A-C45A (domain or fragment, UniProt P0AEN4 35-121)
chain: FGKLPLALFIAIILTAVTVVTTAHHTRLLTAQREQLVLERDALDIEWRNLILEENALGDHSRVERIATEKLQMQHVDPSQENIVVQK
Which binding does the source give for B1 here?
Its binding is “binds”.
